In paper PMC6477179 one finds binding data, which are given here for one molecule.

Results are given in words; binding and its absence hold for the method and conditions named. In cells and extracts the contact can be indirect.

This test addresses 9xmyc-Atg11 ΔCTR (S. cerevisiae). As to the kind of experiment: co-IP; S. cerevisiae Atg11Δ with pRS315-9myc-Atg11 plasmids, grown in YPD; anti-myc Dynabeads 1 h at 4°C in RLB+ buffer; western blot with anti-myc and anti-Atg19.

B1: Atg19 (endogenous, S. cerevisiae) (protein, UniProt P35193 1-415)
chain: MNNSKTNQQMNTSMGYPLTVYDECNKFQLIVPTLDANIMLWCIGQLSLLNDSNGCKHLFWQPNDKSNVRILLNNYDYGHLFKYLQCQRKCSVYIGEGTLKKYNLTISTSFDNFLDLTPSEEKESLCREDAHEDPVSPKAGSEEEISPNSTSNVVVSRECLDNFMKQLLKLEESLNKLELEQKVTNKEPNHRISGTIDIPEDRSELVNFFTELKTVKQLEDVFQRYHDYERLSQECDSKTEIASDHSKKETKIEVEPPNERSLQITMNQRDNSLYFQLFNNTNSVLAGNCKLKFTDAGDKPTTQIIDMGPHEIGIKEYKEYRYFPYALDLEAGSTIEIENQYGEVIFLGKYGSSPMINLRPPSRLSAESLQASQEPFYSFQIDTLPELDDSSIISTSISLSYDGDDNEKALTWEEL
Consider B1, for which the binding result is reported as “no binding”.
